Paper PMC7819943, “Rice protein-binding microarrays: a tool to detect cis-acting elements near promoter regions in rice”
The list shows a part of the results.

target: T1, OsSMF1 (Oryza sativa, UniProt Q6ZLB0 1-436); assay: protein-binding microarray (RPBM); PBS, 2% BSA, 51.3 ng/ul salmon testes DNA, 50 uM zinc acetate, 200 nM TF, 25 C, 1 h; high values mean tight binding; details: protein: recombinant; tags: N-terminal polyhistidine and DsRed monomer fusion (pET32a); chain copies: 2; label: CyDye5-dUTP incorporated in the synthesized complementary strand; 3' TTTTT single-stranded linker to array surface; dsDNA, one strand shown
T1 sequence: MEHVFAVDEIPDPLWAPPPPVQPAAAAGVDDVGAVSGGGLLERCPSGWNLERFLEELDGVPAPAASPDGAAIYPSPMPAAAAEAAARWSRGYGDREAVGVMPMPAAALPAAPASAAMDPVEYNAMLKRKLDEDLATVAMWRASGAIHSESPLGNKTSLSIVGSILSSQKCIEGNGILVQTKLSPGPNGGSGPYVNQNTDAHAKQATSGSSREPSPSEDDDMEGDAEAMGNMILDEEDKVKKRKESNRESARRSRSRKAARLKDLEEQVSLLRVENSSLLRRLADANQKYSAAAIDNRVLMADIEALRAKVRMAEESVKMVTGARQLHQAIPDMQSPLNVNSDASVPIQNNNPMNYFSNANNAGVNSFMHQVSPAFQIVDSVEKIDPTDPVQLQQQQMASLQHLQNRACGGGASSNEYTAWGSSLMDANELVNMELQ
Procedure, shortened: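 Using Ni–NTA, transcription factors fused N-terminally to polyhistidine and DsRed were purified after expression in E. coli BL21-CodonPlus. These were incubated at 200 nM with a blocked, double-stranded custom Agilent array for 1 h at 25 °C in a buffer containing 50 µM zinc acetate, and the array was washed. The binding signal is per-feature fluorescence intensity (arbitrary units) on an Axon 4000B scanner.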

Row | Sequence | binding signal
1 | AACCGAGAAGGACACGACAACGTGGACGAGCCCAACTCATCGGAGTCACCTAGTGCAG | 21900 fluorescence intensity (a.u.)
2 | CATGCTTGATGACTTGATCAATTGATCTGCCGATGGAAGTCGGAGTCACCTAGTGCAG | 3640 fluorescence intensity (a.u.)
3 | GTAGCGTGTGACGTGTGCGTCTCCGACTCCTCCGGCCGGTCGGAGTCACCTAGTGCAG | 7890 fluorescence intensity (a.u.)
4 | TGCTAATTGTTTGCGTGGTCATGAACTAGACCTCACTTGACGGAGTCACCTAGTGCAG | 3440 fluorescence intensity (a.u.)
5 | CGAGAGGGCGAAGCACCAAGGCGACTCGCCACGCAAAGCGCGGAGTCACCTAGTGCAG | 3510 fluorescence intensity (a.u.)
6 | ATCATCTCGTTTTGTGTGAAACACTTCATCTTCATCTTCACGGAGTCACCTAGTGCAG | 3310 fluorescence intensity (a.u.)
7 | CGAGGTCGCCGGGGAATCCTTGGGTGACGCCACCTCCGCCCGGAGTCACCTAGTGCAG | 5380 fluorescence intensity (a.u.)
8 | CCTCGTCAGAGTTCAGATATATCTGTCATCCTTTCTTCCCCGGAGTCACCTAGTGCAG | 3350 fluorescence intensity (a.u.)
9 | GGTATTGCTGTATTTATTTTGGTGTGGTTGAGAGTCTAGTCGGAGTCACCTAGTGCAG | 4096 fluorescence intensity (a.u.)
10 | TCCGTTGCCGTCTCCGGCGCCGGCGGCGCTGCCACGGGGTCGGAGTCACCTAGTGCAG | 4180 fluorescence intensity (a.u.)
11 | CTTAGAAACAATGGAGCAAGAGTTGGTCACCACTCAGTCACGGAGTCACCTAGTGCAG | 4620 fluorescence intensity (a.u.)
12 | GTGATGTATGAGTGGCTGCCCTCCTGCCGCCATCCGTCGCCGGAGTCACCTAGTGCAG | 3270 fluorescence intensity (a.u.)
13 | ATATGAAGCATAAAATGAGAGGAAAAGACAATGAGATGAGCGGAGTCACCTAGTGCAG | 33400 fluorescence intensity (a.u.)
14 | GCAGCAGCAGTAGCTGCCGTCACTTCGCCACCACAGTGTTCGGAGTCACCTAGTGCAG | 23700 fluorescence intensity (a.u.)
15 | GGTTTCCTTTGGGGAATCTCTCTTCTTCACCGTCAAATTTCGGAGTCACCTAGTGCAG | 26600 fluorescence intensity (a.u.)
16 | GAGTGTGAGCGGGGTGTTACGTGTGTGGTGGCGTGTACCGCGGAGTCACCTAGTGCAG | 7000 fluorescence intensity (a.u.)
17 | CACTGTTGCAGGATGCAGCCACATGGCCCTAGTGCTGCACCGGAGTCACCTAGTGCAG | 3360 fluorescence intensity (a.u.)
18 | GACAGGCAGGGGATCACGTGGCGTAGAGGGAGGATGGTGTCGGAGTCACCTAGTGCAG | 3720 fluorescence intensity (a.u.)
19 | CTGCCGCCGCCGTCATCTCCGACGCTCCTCCGTGGCGGCCCGGAGTCACCTAGTGCAG | 6420 fluorescence intensity (a.u.)
20 | AATGACAGGACAACGAGGACACCGTGGATATTAAAGACCCCGGAGTCACCTAGTGCAG | 4140 fluorescence intensity (a.u.)
21 | AGCAGCAGCAACTACACTAGTACGTAGGTACGTAGTAGGCCGGAGTCACCTAGTGCAG | 3160 fluorescence intensity (a.u.)

Row | Sequence | binding signal
22 | TCTCTTTCTTCACACGCGTGCACCCATAAATGCACCCTTTCGGAGTCACCTAGTGCAG | 10400 fluorescence intensity (a.u.)
23 | AACCCTAACCCCACCTCACCACCCTCCCCGGCGGCGGCGGCGGAGTCACCTAGTGCAG | 3290 fluorescence intensity (a.u.)
24 | TAATCTTCGAGTATGTATGAATAGTTTGATTACGTGCATTCGGAGTCACCTAGTGCAG | 3950 fluorescence intensity (a.u.)
25 | GGTTTCCATAAAATACCCACTCATATAGTCATATGTCTTTCGGAGTCACCTAGTGCAG | 3210 fluorescence intensity (a.u.)
26 | GCAAGCAATCCGGGTGGATTGAGTGCTAGGCGAAATTACTCGGAGTCACCTAGTGCAG | 4330 fluorescence intensity (a.u.)
27 | TTACAGCCCACTGCGGAGAAAATCTCGCCACGCCACGCGACGGAGTCACCTAGTGCAG | 3210 fluorescence intensity (a.u.)
28 | CCCCACTGATGATGATGATGACTCGATTCTATTCCACCGCCGGAGTCACCTAGTGCAG | 5550 fluorescence intensity (a.u.)
29 | TGCATTTATGTAAGACTTTTATGATGTTTGTAAGACGTGGCGGAGTCACCTAGTGCAG | 6730 fluorescence intensity (a.u.)
30 | TTTCTGATGTGGAAAAGGTATGTGACTGTATGAAATGCAGCGGAGTCACCTAGTGCAG | 3900 fluorescence intensity (a.u.)
31 | GGAAAGGCACATGGATTACGCGCGCGATTGAAGAAGAAATCGGAGTCACCTAGTGCAG | 36400 fluorescence intensity (a.u.)
32 | GTCGTCGCCTCCGGCGTCAGCGCCAACCTCAGCATGGCATCGGAGTCACCTAGTGCAG | 4820 fluorescence intensity (a.u.)
33 | GCCAATCAGAGCGCGGCGTTGGCGTCTCCCCGTCATCGCGCGGAGTCACCTAGTGCAG | 3840 fluorescence intensity (a.u.)
34 | GTACAGCAGGAATCGCTGCTGGCGTCGCTTCGTCGGTTGTCGGAGTCACCTAGTGCAG | 65100 fluorescence intensity (a.u.)
35 | CGGGAGGGGAGGGGAATGGATGTGGGGAGGAGAGAGACTGCGGAGTCACCTAGTGCAG | 4600 fluorescence intensity (a.u.)
36 | GGCTTTTATGGGGCGGGCTTTCTTTGGTCAATGGTCACTACGGAGTCACCTAGTGCAG | 4080 fluorescence intensity (a.u.)
37 | GTTGATACCTAATCCCCTATAAAAGCCCCACCTGGGGTGACGGAGTCACCTAGTGCAG | 3570 fluorescence intensity (a.u.)
38 | GAGCGGTGATGTGTCCTCTAATGACACGCCCGTTGACAATCGGAGTCACCTAGTGCAG | 7080 fluorescence intensity (a.u.)
39 | AGTACACACCTATGTATGTCCTATGTGGCAAAGACAAAGCCGGAGTCACCTAGTGCAG | 3920 fluorescence intensity (a.u.)
40 | TCTCCGCAAATTCGTCATCTACTCCCTCGCATCGCATGGCCGGAGTCACCTAGTGCAG | 4600 fluorescence intensity (a.u.)
41 | GGTTGGCCATGCTCCTCCCTGAAAGGAGCAACTGCCTTGGCGGAGTCACCTAGTGCAG | 4280 fluorescence intensity (a.u.)
42 | GTTGTGTTGCATGTCATGACTTAGCATTATTCAAATTGTTCGGAGTCACCTAGTGCAG | 4660 fluorescence intensity (a.u.)
